Laboratory results: paper PMC7343880
No constants are given. Whether binding was seen depends on the method and setting. For some of these results: Binding seen in cells or lysates may run through a third protein. Some results given as binding are weak or reduced against the parent protein; the word gives no strength. For some of these results: Where a sequence is shown, tags or fusion partners need not be part of it. Values belong to the molecule of their own block, whether it stands above or below them.

The chains behind the UniProt entries cited, without tags or fusion partners. Residues count along the entry.
UniProt Q9NZQ7, residues 19-290: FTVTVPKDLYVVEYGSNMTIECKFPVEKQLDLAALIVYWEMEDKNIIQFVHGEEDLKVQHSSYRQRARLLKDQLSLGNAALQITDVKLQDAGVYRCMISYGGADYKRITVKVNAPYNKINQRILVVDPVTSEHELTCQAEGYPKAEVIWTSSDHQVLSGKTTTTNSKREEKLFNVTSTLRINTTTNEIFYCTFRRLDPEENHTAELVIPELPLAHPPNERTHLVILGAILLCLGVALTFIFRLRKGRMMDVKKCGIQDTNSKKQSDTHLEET

Columns and labels:
[1] = molecular target: T1, PDS5B (purified from insect cells) (UniProt Q9NTI5); test: in vitro competition binding assay; PDS5B purified from insect cells, purified WAPL (1–30)-GST and PD-L1 (WT or AKE) purified from nuclear fraction of MDA-MB-231 cells (Fig. 3f, left); further details not given; both purified
T1 sequence: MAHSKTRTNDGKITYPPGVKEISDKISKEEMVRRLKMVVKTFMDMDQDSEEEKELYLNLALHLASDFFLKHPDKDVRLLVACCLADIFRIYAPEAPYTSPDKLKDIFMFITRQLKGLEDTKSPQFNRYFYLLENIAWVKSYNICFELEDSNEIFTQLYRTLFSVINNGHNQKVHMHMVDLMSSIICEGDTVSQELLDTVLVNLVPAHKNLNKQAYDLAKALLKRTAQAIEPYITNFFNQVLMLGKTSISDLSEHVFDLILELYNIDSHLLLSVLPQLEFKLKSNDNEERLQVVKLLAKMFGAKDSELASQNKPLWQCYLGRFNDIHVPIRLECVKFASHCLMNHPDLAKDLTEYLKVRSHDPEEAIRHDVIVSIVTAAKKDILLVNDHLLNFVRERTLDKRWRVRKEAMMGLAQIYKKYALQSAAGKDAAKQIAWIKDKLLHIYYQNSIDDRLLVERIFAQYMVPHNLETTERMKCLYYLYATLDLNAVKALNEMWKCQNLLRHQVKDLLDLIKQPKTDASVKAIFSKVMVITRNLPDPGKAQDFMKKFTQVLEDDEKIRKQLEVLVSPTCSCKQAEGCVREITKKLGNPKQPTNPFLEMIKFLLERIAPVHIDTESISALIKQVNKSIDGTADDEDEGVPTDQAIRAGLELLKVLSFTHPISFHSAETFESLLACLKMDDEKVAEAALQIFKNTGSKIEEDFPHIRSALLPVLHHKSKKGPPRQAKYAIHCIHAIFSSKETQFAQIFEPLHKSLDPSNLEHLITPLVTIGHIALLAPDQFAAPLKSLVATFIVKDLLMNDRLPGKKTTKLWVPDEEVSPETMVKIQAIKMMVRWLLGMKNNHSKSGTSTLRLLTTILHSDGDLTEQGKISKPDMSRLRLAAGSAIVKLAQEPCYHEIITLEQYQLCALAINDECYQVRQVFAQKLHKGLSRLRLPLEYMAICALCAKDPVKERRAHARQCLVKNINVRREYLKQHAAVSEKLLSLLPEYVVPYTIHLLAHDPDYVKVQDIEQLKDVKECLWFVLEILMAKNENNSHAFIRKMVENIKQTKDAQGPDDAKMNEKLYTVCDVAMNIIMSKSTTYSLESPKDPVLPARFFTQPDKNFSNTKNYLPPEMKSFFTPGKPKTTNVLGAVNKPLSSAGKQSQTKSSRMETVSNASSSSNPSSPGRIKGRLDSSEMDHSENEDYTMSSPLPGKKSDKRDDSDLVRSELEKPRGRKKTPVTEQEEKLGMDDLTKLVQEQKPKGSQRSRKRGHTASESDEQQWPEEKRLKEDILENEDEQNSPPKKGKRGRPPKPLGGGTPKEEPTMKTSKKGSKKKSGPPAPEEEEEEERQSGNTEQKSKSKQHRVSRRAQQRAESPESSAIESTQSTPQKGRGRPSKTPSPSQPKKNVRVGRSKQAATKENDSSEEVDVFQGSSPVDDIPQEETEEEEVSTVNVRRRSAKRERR

[2] = molecular target: PD-L1 wild-type (WT), transfected, HA-tagged (UniProt Q9NZQ7); test: co-IP; PD-L1 WT, AIA or AKE plasmids transfected into cells; nuclear fractions incubated with HA-conjugated sepharose beads; blots (Fig. 3d)
[3] = molecular target: T2, PDS5B (human (endogenous in MDA-MB-231)) (UniProt Q9NTI5); test: co-IP; PD-L1 WT, AIA or AKE plasmids transfected into cells; nuclear fractions incubated with protein A beads conjugated with anti-PDS5B antibody; blots (Fig. 3e)
T2 sequence: T1 sequence

Molecule: PD-L1 wildtype purified from nuclear fraction of MDA-MB-231 cells (from UniProt Q9NZQ7 19-290)
binding [1]: binds

Molecule: MTSRFGKTYSRKGGNGSSKFDEVFSNKRTT (domain or fragment, UniProt Q7Z5K2 1-30) [WAPL (1–30)-GST]
binding [1]: binds

Second part, the molecule after the results:

binding [2]: binds
B1: PDS5B (protein, UniProt Q9NTI5 1-1447)
chain: T1 sequence

binding [3]: binds
B2: Wing Apart-Like (WAPL) (protein, UniProt Q7Z5K2 1-1190)
chain: MTSRFGKTYSRKGGNGSSKFDEVFSNKRTTLSTKWGETTFMAKLGQKRPNFKPDIQEIPKKPKVEEESTGDPFGFDSDDESLPVSSKNLAQVKCSSYSESSEAAQLEEVTSVLEANSKISHVVVEDTVVSDKCFPLEDTLLGKEKSTNRIVEDDASISSCNKLITSDKVENFHEEHEKNSHHIHKNADDSTKKPNAETTVASEIKETNDTWNSQFGKRPESPSEISPIKGSVRTGLFEWDNDFEDIRSEDCILSLDSDPLLEMKDDDFKNRLENLNEAIEEDIVQSVLRPTNCRTYCRANKTKSSQGASNFDKLMDGTSQALAKANSESSKDGLNQAKKGGVSCGTSFRGTVGRTRDYTVLHPSCLSVCNVTIQDTMERSMDEFTASTPADLGEAGRLRKKADIATSKTTTRFRPSNTKSKKDVKLEFFGFEDHETGGDEGGSGSSNYKIKYFGFDDLSESEDDEDDDCQVERKTSKKRTKTAPSPSLQPPPESNDNSQDSQSGTNNAENLDFTEDLPGVPESVKKPINKQGDKSKENTRKIFSGPKRSPTKAVYNARHWNHPDSEELPGPPVVKPQSVTVRLSSKEPNQKDDGVFKAPAPPSKVIKTVTIPTQPYQDIVTALKCRREDKELYTVVQHVKHFNDVVEFGENQEFTDDIEYLLSGLKSTQPLNTRCLSVISLATKCAMPSFRMHLRAHGMVAMVFKTLDDSQHHQNLSLCTAALMYILSRDRLNMDLDRASLDLMIRLLELEQDASSAKLLNEKDMNKIKEKIRRLCETVHNKHLDLENITTGHLAMETLLSLTSKRAGDWFKEELRLLGGLDHIVDKVKECVDHLSRDEDEEKLVASLWGAERCLRVLESVTVHNPENQSYLIAYKDSQLIVSSAKALQHCEELIQQYNRAEDSICLADSKPLPHQNVTNHVGKAVEDCMRAIIGVLLNLTNDNEWGSTKTGEQDGLIGTALNCVLQVPKYLPQEQRFDIRVLGLGLLINLVEYSARNRHCLVNMETSCSFDSSICSGEGDDSLRIGGQVHAVQALVQLFLERERAAQLAESKTDELIKDAPTTQHDKSGEWQETSGEIQWVSTEKTDGTEEKHKKEEEDEELDLNKALQHAGKHMEDCIVASYTALLLGCLCQESPINVTTVREYLPEGDFSIMTEMLKKFLSFMNLTCAVGTTGQKSISRVIEYLEHC
